PubChem BioAssay AID504764, Drosophila RNAi Screening Center – 2011
Assay: 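Genome-wide screen for regulators of Notch-driven gene expression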 (primary screen). Cell system: Drosophila Kc167 cells. Reagents: long dsRNA against Drosophila genes. Duration: about 5 days (4 days dsRNA, then 24 h after transfection). Challenge: transfection of constitutively active membrane-tethered Notch lacking the extracellular domain, read 24 h later. Measured: 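Light from a Notch-responsive E(spl)m3 luciferase reporter under active Notch, with control-promoter and no-Notch reporter wells to normalise; raw counts from paired wells a and b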. Direction: induced reporter light, run 1, well a and induced reporter light, run 1, well b: higher = more light from the Notch target reporter with active Notch; control promoter light, run 1, well a and control promoter light, run 1, well b: higher = more light from the viral control promoter (cell number, transfection, viability); uninduced reporter light, run 1, well a: higher = more light from the Notch target reporter without active Notch. Hit rule: 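Wells with low control signal or poorly matching duplicates excluded; duplicates averaged; per source plate, z beyond ±2 for induced/control log2 ratio or beyond ±1.8 for induced/uninduced marks a hit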. Meaning of the calls: active = modifier hit (raised or lowered Notch signal); inactive = not a hit.
The screen tested about 22,000 reagents; below is a random part of those that have a named target and a result. In the full data, 403 (1.9%) got an active call. 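Unnormalised raw counts per well; ratio z-scores behind the hit calls and whether each hit raises or lowers signal are not deposited.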 Reagent sequences are not shown. Not given: the amount of reagent.

gene | amplicon | induced reporter light, run 1, well a | induced reporter light, run 1, well b | control promoter light, run 1, well a | control promoter light, run 1, well b | uninduced reporter light, run 1, well a | Call
CG33140 (GeneID 35642) | DRSC06030 | 1.61e5 | 1.38e5 | 1.44e5 | 1.59e5 | 12565 | inactive
CG13870 (GeneID 37308) | DRSC06429 | 45190 | 39840 | 61175 | 90420 | 4800 | inactive
Pdhb (GeneID 43437) | DRSC14420 | 1.84e5 | 1.76e5 | 2.04e5 | 1.92e5 | 11165 | inactive
SK (GeneID 31456) | DRSC17387 | 90495 | 93750 | 95020 | 86215 | 6495 | inactive
SK (GeneID 31456) | DRSC17751 | 2.11e5 | 1.84e5 | 3.20e5 | 3.35e5 | 14032 | inactive
SK (GeneID 31456) | DRSC17887 | 1.74e5 | 1.55e5 | 3.38e5 | 2.43e5 | 11730 | inactive
SK (GeneID 31456) | DRSC17888 | 1.31e5 | 1.42e5 | 2.69e5 | 2.17e5 | 10880 | inactive
SK (GeneID 31456) | DRSC18353 | 2.23e5 | 1.87e5 | 2.65e5 | 2.20e5 | 15230 | inactive
Liprin-gamma (GeneID 37552) | DRSC04093 | 1.45e5 | 1.66e5 | 2.93e5 | 2.63e5 | 12415 | inactive
CG8851 (GeneID 33575) | DRSC00718 | 59460 | 60620 | 79220 | 55730 | 5325 | inactive
CG12320 (GeneID 42189) | DRSC14498 | 2.04e5 | 1.51e5 | 2.19e5 | 2.16e5 | 12400 | inactive
Prx4 (GeneID 53577) | DRSC08668 | 1.17e5 | 92015 | 2.34e5 | 1.57e5 | 7030 | inactive
GstD11 (GeneID 41512) | DRSC15251 | 76590 | 78090 | 75855 | 61580 | 4545 | inactive
CG9304 (GeneID 37500) | DRSC04538 | 34625 | 32905 | 44120 | 52105 | 1925 | inactive
lig (GeneID 35771) | DRSC07246 | 73770 | 72425 | 66950 | 85005 | 9050 | inactive
lig (GeneID 35771) | DRSC07247 | 1.67e5 | 1.83e5 | 1.40e5 | 1.18e5 | 26215 | inactive
shv (GeneID 33220) | DRSC00640 | 84195 | 83315 | 87230 | 47880 | 7950 | inactive
shv (GeneID 33220) | DRSC22122 | – | – | – | – | – | inactive
CG13326 (GeneID 36439) | DRSC06363 | 80745 | 85850 | 98375 | 89545 | 6360 | inactive
p23 (GeneID 41173) | DRSC15158 | 1.83e5 | 1.74e5 | 1.13e5 | 1.03e5 | 11180 | inactive

2 of these entries, reformatted:
Prx4 (GeneID 53577) [DRSC08668]
- induced reporter light, run 1, well a: 1.17e5
- induced reporter light, run 1, well b: 92015
- control promoter light, run 1, well a: 2.34e5
- control promoter light, run 1, well b: 1.57e5
- uninduced reporter light, run 1, well a: 7030
- Call: inactive

GstD11 (GeneID 41512) [DRSC15251]
- induced reporter light, run 1, well a: 76590
- induced reporter light, run 1, well b: 78090
- control promoter light, run 1, well a: 75855
- control promoter light, run 1, well b: 61580
- uninduced reporter light, run 1, well a: 4545
- Call: inactive
